From patent US20170137489 (published 2017) come the findings set out here.

This data set is described as follows: general procedure: Fmoc solid-phase peptide synthesis; Fmoc-Sieber Amide resin; HCTU/DIEA; TBTU/HOBt/DIEA. The conditions noted are these: whole synthesis, scale 1.41 kg resin, salt exchange using ammonium acetate and acetic acid buffers.

With H-Inp-D-Bal-D-Trp-Phe-Apc-NH2, the crude yield stood at 80.8%. Also, the “crude HPLC purity” value (HPLC) was found to be 90.0%.
